Laboratory results: PubChem BioAssay AID743121 (NCATS, 2013)

Purpose: 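Knock-downs that sensitise breast cancer cells to camptothecin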 (primary screen)
System: MDA-MB-231 cells, a human breast cancer line
Reagents: single siRNA against human genes, 20 nM siRNA (0.8 pmol per well)
Timing: 120 h (drug added 48 h after transfection, read 72 h later)
Treatment: camptothecin 20 nM (about EC30) for 72 h; vehicle 0.1% DMSO in parallel plates
Measured: 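CellTiter-Glo ATP signal, scaled to control siRNA as percent viability; sensitisation given as log2 of untreated divided by camptothecin-treated viability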
Reading the numbers: log2 vehicle/camptothecin viability: higher = stronger sensitisation to camptothecin
Active means: 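Each gene scored by redundant siRNA activity (RSA) over its individual siRNA ratios; a gene is called active at p < 0.001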
The whole screen tested about 26,000 reagents; shown is an unselected part. 167 of them (0.63%) were called active. 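Calls are per gene from RSA p-values that are not deposited; an individual active-marked siRNA can sensitise only weakly.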 Reagents against one gene are numbered here. Further read-outs or replicates are left out here.

gene,reagent,log2 vehicle/camptothecin viability,activity call
SHC1 (SHC adaptor protein 1),1,-0.453,inactive
SHC1 (SHC adaptor protein 1),2,0.328,inactive
SHC1 (SHC adaptor protein 1),3,0.00816,inactive
SHC1 (SHC adaptor protein 1),4,-0.214,inactive
APP (amyloid beta precursor protein),1,-0.406,inactive
APP (amyloid beta precursor protein),2,-0.143,inactive
APP (amyloid beta precursor protein),3,-0.537,inactive
SFXN5 (sideroflexin 5),1,0.0458,inactive
SFXN5 (sideroflexin 5),2,0.13,inactive
SFXN5 (sideroflexin 5),3,0.274,inactive
SFXN5 (sideroflexin 5),4,0.896,inactive
BMP4 (bone morphogenetic protein 4),1,-0.0947,inactive
BMP4 (bone morphogenetic protein 4),2,0.0899,inactive
BMP4 (bone morphogenetic protein 4),3,-0.101,inactive
AKR1C3 (aldo-keto reductase family 1 member C3),1,0.0241,inactive
AKR1C3 (aldo-keto reductase family 1 member C3),2,-0.181,inactive
AKR1C3 (aldo-keto reductase family 1 member C3),3,-0.0624,inactive
AKR1C3 (aldo-keto reductase family 1 member C3),4,-0.229,inactive
ANAPC7 (anaphase promoting complex subunit 7),1,-0.398,inactive
ANAPC7 (anaphase promoting complex subunit 7),2,-0.13,inactive
ANAPC7 (anaphase promoting complex subunit 7),3,-0.191,inactive
ANAPC7 (anaphase promoting complex subunit 7),4,-0.167,inactive
HDAC1 (histone deacetylase 1),1,0.313,inactive
HDAC1 (histone deacetylase 1),2,-0.213,inactive
HDAC1 (histone deacetylase 1),3,0.137,inactive
HDAC1 (histone deacetylase 1),4,-0.415,inactive
ABCB5 (ATP binding cassette subfamily B member 5),1,0.123,inactive
ABCB5 (ATP binding cassette subfamily B member 5),2,-0.14,inactive
ABCB5 (ATP binding cassette subfamily B member 5),3,-0.143,inactive
"ERCC8 (ERCC excision repair 8, CSA ubiquitin ligase complex subunit)",1,-0.269,inactive
"ERCC8 (ERCC excision repair 8, CSA ubiquitin ligase complex subunit)",2,-0.106,inactive
"ERCC8 (ERCC excision repair 8, CSA ubiquitin ligase complex subunit)",3,-0.0855,inactive
"ERCC8 (ERCC excision repair 8, CSA ubiquitin ligase complex subunit)",4,-0.00246,inactive
CDCA5 (cell division cycle associated 5),1,-0.287,inactive
CDCA5 (cell division cycle associated 5),2,-0.465,inactive
CDCA5 (cell division cycle associated 5),3,-0.302,inactive
CDCA5 (cell division cycle associated 5),4,-0.325,inactive
FXR1 (FMR1 autosomal homolog 1),1,-0.153,inactive
FXR1 (FMR1 autosomal homolog 1),2,-0.0906,inactive
FXR1 (FMR1 autosomal homolog 1),3,0.263,inactive
FXR1 (FMR1 autosomal homolog 1),4,0.00641,inactive
NKX2-1 (NK2 homeobox 1),1,-0.00209,inactive
NKX2-1 (NK2 homeobox 1),2,1.54,inactive
NKX2-1 (NK2 homeobox 1),3,0.00577,inactive
NKX2-1 (NK2 homeobox 1),4,-0.379,inactive
DPEP2 (dipeptidase 2),1,-0.104,inactive
DPEP2 (dipeptidase 2),2,0.118,inactive
DPEP2 (dipeptidase 2),3,-0.28,inactive
DPEP2 (dipeptidase 2),4,-0.618,inactive
PTH (parathyroid hormone),1,-0.178,inactive
PTH (parathyroid hormone),2,0.0187,inactive
PTH (parathyroid hormone),3,-0.0112,inactive
PTH (parathyroid hormone),4,-0.149,inactive
CARS1 (cysteinyl-tRNA synthetase 1),1,-0.0414,inactive
CARS1 (cysteinyl-tRNA synthetase 1),2,-0.12,inactive
CARS1 (cysteinyl-tRNA synthetase 1),3,-0.275,inactive
CARS1 (cysteinyl-tRNA synthetase 1),4,-0.509,inactive
MAN2B1 (mannosidase alpha class 2B member 1),1,0.238,inactive
MAN2B1 (mannosidase alpha class 2B member 1),2,-0.0881,inactive
MAN2B1 (mannosidase alpha class 2B member 1),3,-0.0725,inactive
MAN2B1 (mannosidase alpha class 2B member 1),4,-0.18,inactive
ADAMTS1 (ADAM metallopeptidase with thrombospondin type 1 motif 1),1,-0.17,inactive
ADAMTS1 (ADAM metallopeptidase with thrombospondin type 1 motif 1),2,-0.276,inactive
ADAMTS1 (ADAM metallopeptidase with thrombospondin type 1 motif 1),3,-0.46,inactive
ADAMTS1 (ADAM metallopeptidase with thrombospondin type 1 motif 1),4,-0.468,inactive
SLC52A2,1,0.246,inactive
SLC52A2,2,0.966,inactive
SLC52A2,3,-0.0213,inactive
SLC52A2,4,-0.41,inactive
